Measured values from publication PMC4978918.
No constants are given. Whether binding was seen depends on the method and setting. Binding seen in cells or lysates may run through a third protein. Some binding calls cover weakened binding; strength is not graded here. Sequences can lack the tags named with a protein.

Target: T1, Scc4-3V5 (wild-type Scc4 tagged with three copies of the V5 epitope) (S. cerevisiae) (UniProt P40090)
T1 sequence: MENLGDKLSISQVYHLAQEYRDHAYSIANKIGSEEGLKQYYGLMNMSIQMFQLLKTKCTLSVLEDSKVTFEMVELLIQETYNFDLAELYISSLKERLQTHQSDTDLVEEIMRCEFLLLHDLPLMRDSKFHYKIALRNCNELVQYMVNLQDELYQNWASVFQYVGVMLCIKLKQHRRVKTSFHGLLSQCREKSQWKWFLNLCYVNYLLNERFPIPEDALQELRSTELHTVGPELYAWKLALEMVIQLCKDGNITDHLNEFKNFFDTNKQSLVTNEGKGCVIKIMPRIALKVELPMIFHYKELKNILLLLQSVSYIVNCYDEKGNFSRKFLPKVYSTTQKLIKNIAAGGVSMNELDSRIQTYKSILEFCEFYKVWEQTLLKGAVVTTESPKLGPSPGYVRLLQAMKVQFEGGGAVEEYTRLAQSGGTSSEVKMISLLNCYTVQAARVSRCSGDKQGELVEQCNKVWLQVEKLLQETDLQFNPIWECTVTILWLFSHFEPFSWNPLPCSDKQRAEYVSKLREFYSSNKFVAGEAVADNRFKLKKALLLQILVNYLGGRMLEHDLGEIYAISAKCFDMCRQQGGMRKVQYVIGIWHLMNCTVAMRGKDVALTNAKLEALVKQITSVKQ
Experiment: co-IP; anti-V5 IP of Scc4-3V5 or scc4-RID-3V5 from yeast extracts, cells at midlog phase in YPD at 23°, IPH50 buffer (50 mM Tris pH 8.0, 50 mM NaCl, 5 mM EDTA, 0.5% NP-40), 4°; blot with anti-Myc (Scc2) or anti-HA (Smc1)

B1: Scc2-12Myc (protein, UniProt Q04002 1-1493)
chain: MSYPGKDKNIPGRIIEALEDLPLSYLVPKDGLAALVNAPMRVSLPFDKTIFTSADDGRDVNINVLGTANSTTSSIKNEAEKERLVFKRPSNFTSSANSVDYVPTNFLEGLSPLAQSVLSTHKGLNDSINIEKKSEIVSRPEAKHKLESVTSNAGNLSFNDNSSNKKTKTSTGVTMTQANLAEQYLNDLKNILDIVGFDQNSAEIGNIEYWLQLPNKKFVLTTNCLTKLQMTIKNITDNPQLSNSIEITWLLRLLDVMVCNIKFSKSSLKMGLDDSMLRYIALLSTIVLFNIFLLGKNDSNLHRESYIMEPVNFLSDLIESLKILTIEYGSLKIEFDTFQEALELLPKYIRNGPFLDDNVTAKLVYIFSDLLMNNDIEATTNIQFQSFWDNVKRISSDILVSLFGSFDQQRGFIIEELLSHIEKLPTKRIQKKLRKVGNQNIYITDFTFTLMSMLENINCYSFCNQMKDIAPENIDLLKNEYKKQEEFLFNIVEHINDTILERFFKNPSALRYVIDNFVQDLLLLISSPQWPVTEKILSSLLKRLLSVYSPSMQVSANIETICLQLIGNIGSTIFDIKCSTRDHEDNNLIKMINYPETLPHFFKSFEECIAYNETIKCRRSATRFLWNLRLGTILILEEYTKDAKEQIITVDNELKKILEQIKDGGLGPELENREADFSTIKLDYFSILHAFELLNLYDPYLKLILSLLAKDKIKLRSTAIKCLSMLASKDKVILSNPMVKETIHRRLNDSSASVKDAILDLVSINSSYFEFYQQINNNYNDDSIMVRKHVLRINEKMYDETNDIVTKVYVIARILMKIEDEEDNIIDMARLILLNRWILKVHEVLDQPEKLKEISSSVLLVMSRVAIMNEKCSQLFDLFLNFYLLNKEAHSKEAYDKITHVLTILTDFLVQKIVELNSDDTNEKNSIVDKQNFLNLLAKFADSTVSFLTKDHITALYPYMVSDEKSDFHYYILQVFRCTFEKLANFKQKFLYDLETTLLSRLPKMNVREIDEAMPLIWSVATHRHDTARVAKACSSCLSHLHPYINKANNEEAAIVVDGKLQRLIYLSTGFARFCFPKPSNDKIAFLQEGETLYEHITKCLLVLSKDKITHVIRRVAVKNLTKLCGNHPKLFNSRHVLHLLDKEFQSDQLDIKLVILESLYDLFLLEERKSVRNTGVNSTLSSNSILKKKLLKTNRVEFANDGVCSALATRFLDNILQLCLLRDLKNSLVAIRLLKLILKFGYTNPSHSIPTVIALFASTSQYIRHVAYELLEDLFEKYETLVFSSLSRGVTKAIHYSIHTDEKYYYKHDHFLSLLEKLCGTGKKNGPKFFKVLKRIMQSYLDDITDLTSTNSSVQKSIFVLCTNISNITFVSQYDLVSLLKTIDLTTDRLKEVIMDEIGDNVSSLSVSEEKLSGIILIQLSLQDLGTYLLHLYGLRDDVLLLDIVEESELKNKQLPAKKPDISKFSAQLENIEQYSSNGKLLTYFRKHVKDT
- binding: binds
